Data as given in patent US8765447B2, “Fungal strain Beauveria sp. MTCC 5184 and a process for the preparation of enzymes therefrom” (Council of Scientific and Industrial Research, priority 2010, dated 2014).
Some of these results come from one statement about several compounds together. For at least one compound, name, drawing or mass did not settle the structure.

Test system: purified protease of Beauveria sp MTCC 5184
Assay: Stability of purified protease in organic solvents at 28° C.
Type: biochemical
Settings: after 24 h, 25% (v/v) solvent, pH 7

SMILES	residual activity
C[S+](C)[O-] [DMSO, Dimethylsulphoxide]	more than 80%
CC(C)O [Isopropanol, isopropanol]	more than 80%
